In the supplement of paper PMC7666118:
The other results are listed elsewhere or left out.

Protein sequences, listed by entry. Tags and fused reporters are not part of them.
UniProt P54709, whole entry: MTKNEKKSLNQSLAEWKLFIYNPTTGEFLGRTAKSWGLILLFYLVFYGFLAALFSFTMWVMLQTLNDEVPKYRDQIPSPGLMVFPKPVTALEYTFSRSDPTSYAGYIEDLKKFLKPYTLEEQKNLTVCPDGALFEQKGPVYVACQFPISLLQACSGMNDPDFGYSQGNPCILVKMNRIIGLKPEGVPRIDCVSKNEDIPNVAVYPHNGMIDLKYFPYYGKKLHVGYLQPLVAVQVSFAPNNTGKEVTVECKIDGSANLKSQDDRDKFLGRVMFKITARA

Molecular target: ATP1B3 (UniProt P54709)
Test: dose-dependent thermal stabilisation call (2D-TPP, DLPTP, 10% FDR) (binary (1 = stabilised)); higher = stabilised by the compound
Settings: system: HL-60 intact cells; concentration range 0.04-10 µM

COc1ccc(Cn2ccc3ccc(C(=O)NO)cc32)cc1
dose-dependent thermal stabilisation call: inactive: 0
